Data as given in PubChem BioAssay AID743121 (NCATS, 2013)
Assay: 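Genes whose silencing strengthens cell killing by camptothecin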 (primary screen). Cells: MDA-MB-231 cells, a human breast cancer line. Knock-down reagent: single siRNA against human genes, 20 nM siRNA (0.8 pmol per well). Timing: 120 h (drug added 48 h after transfection, read 72 h later). Conditions: camptothecin 20 nM (about EC30) for 72 h; vehicle 0.1% DMSO in parallel plates. Measured: 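Cell viability by ATP luminescence (CellTiter-Glo) as % of non-targeting siRNA wells, and the log2 ratio of viability without drug over viability with camptothecin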. Direction: log2 vehicle/camptothecin viability: higher = stronger sensitisation to camptothecin; viability with camptothecin and viability without drug: higher = more viable cells. Active means: 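Each gene scored by redundant siRNA activity (RSA) over its individual siRNA ratios; a gene is called active at p < 0.001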.
In all, the deposit lists about 26,000 reagents; this is an unselected part. 167 of all reagents (0.63%) were called active. 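Calls are per gene from RSA p-values that are not deposited; an individual active-marked siRNA can sensitise only weakly.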 Reagents against one gene are numbered here. No sequences are given here.

The first 6 entries as a preview:
| gene | reagent | log2 vehicle/camptothecin viability | viability with camptothecin (% of control) | viability without drug (% of control) | Outcome |
| --- | --- | --- | --- | --- | --- |
| FOSL1 (FOS like 1, AP-1 transcription factor subunit) | 1 | -0.0691 | 107 | 102 | inactive |
| FOSL1 (FOS like 1, AP-1 transcription factor subunit) | 2 | -0.311 | 95 | 76.6 | inactive |
| FOSL1 (FOS like 1, AP-1 transcription factor subunit) | 3 | -0.117 | 14.3 | 13.1 | inactive |
| CAPN13 (calpain 13) | 1 | 0.163 | 88.4 | 98.9 | inactive |
| CAPN13 (calpain 13) | 2 | -0.49 | 86.2 | 61.4 | inactive |
| CAPN13 (calpain 13) | 3 | -0.171 | 90.1 | 80 | inactive |

The list itself, repeating the preview:
| gene | reagent | log2 vehicle/camptothecin viability | viability with camptothecin (% of control) | viability without drug (% of control) | Outcome |
| --- | --- | --- | --- | --- | --- |
| FOSL1 (FOS like 1, AP-1 transcription factor subunit) | 1 | -0.0691 | 107 | 102 | inactive |
| FOSL1 (FOS like 1, AP-1 transcription factor subunit) | 2 | -0.311 | 95 | 76.6 | inactive |
| FOSL1 (FOS like 1, AP-1 transcription factor subunit) | 3 | -0.117 | 14.3 | 13.1 | inactive |
| CAPN13 (calpain 13) | 1 | 0.163 | 88.4 | 98.9 | inactive |
| CAPN13 (calpain 13) | 2 | -0.49 | 86.2 | 61.4 | inactive |
| CAPN13 (calpain 13) | 3 | -0.171 | 90.1 | 80 | inactive |
| CAPN13 (calpain 13) | 4 | 0.0939 | 91.8 | 98 | inactive |
| MMD2 (monocyte to macrophage differentiation associated 2) | 1 | 0.000184 | 112 | 112 | inactive |
| MMD2 (monocyte to macrophage differentiation associated 2) | 2 | -0.134 | 85.4 | 77.8 | inactive |
| MMD2 (monocyte to macrophage differentiation associated 2) | 3 | 0.0455 | 90.9 | 93.8 | inactive |
| MMD2 (monocyte to macrophage differentiation associated 2) | 4 | 0.385 | 64.4 | 84.2 | inactive |
| ARAF (A-Raf proto-oncogene, serine/threonine kinase) | 1 | -0.37 | 80 | 61.9 | inactive |
| ARAF (A-Raf proto-oncogene, serine/threonine kinase) | 2 | -0.0846 | 82.4 | 77.7 | inactive |
| ARAF (A-Raf proto-oncogene, serine/threonine kinase) | 3 | 0.174 | 104 | 118 | inactive |
| ARAF (A-Raf proto-oncogene, serine/threonine kinase) | 4 | -0.18 | 87.4 | 77.2 | inactive |
| CBX4 (chromobox 4) | 1 | -0.609 | 78.2 | 51.3 | inactive |
| CBX4 (chromobox 4) | 2 | -0.411 | 65.3 | 49.1 | inactive |
| CBX4 (chromobox 4) | 3 | -0.463 | 75.1 | 54.5 | inactive |
| YARS2 (tyrosyl-tRNA synthetase 2) | 1 | -0.139 | 75.2 | 68.3 | inactive |
| YARS2 (tyrosyl-tRNA synthetase 2) | 2 | -0.155 | 91.5 | 82.2 | inactive |
| YARS2 (tyrosyl-tRNA synthetase 2) | 3 | -0.158 | 47.2 | 42.3 | inactive |
| YARS2 (tyrosyl-tRNA synthetase 2) | 4 | -0.836 | 56.7 | 31.8 | inactive |
| EFNB3 (ephrin B3) | 1 | -0.41 | 40.9 | 30.8 | inactive |
| EFNB3 (ephrin B3) | 2 | -0.27 | 53.2 | 44.1 | inactive |
| EFNB3 (ephrin B3) | 3 | -0.0726 | 91.2 | 86.8 | inactive |
| EFNB3 (ephrin B3) | 4 | 0.674 | 31.6 | 50.4 | inactive |
| PRKAR1B (protein kinase cAMP-dependent type I regulatory subunit beta) | 1 | -0.0886 | 94.9 | 89.3 | inactive |
| PRKAR1B (protein kinase cAMP-dependent type I regulatory subunit beta) | 2 | -0.314 | 68.2 | 54.9 | inactive |
| PRKAR1B (protein kinase cAMP-dependent type I regulatory subunit beta) | 3 | -0.36 | 106 | 82.9 | inactive |
| PRKAR1B (protein kinase cAMP-dependent type I regulatory subunit beta) | 4 | -0.401 | 97.2 | 73.6 | inactive |
| KCNK13 (potassium two pore domain channel subfamily K member 13) | 1 | -0.171 | 56.5 | 50.2 | inactive |
| KCNK13 (potassium two pore domain channel subfamily K member 13) | 2 | -0.378 | 86.9 | 66.8 | inactive |
| KCNK13 (potassium two pore domain channel subfamily K member 13) | 3 | -0.568 | 72.8 | 49.1 | inactive |
| KCNK13 (potassium two pore domain channel subfamily K member 13) | 4 | 0.142 | 31.8 | 35.1 | inactive |
| ECD (ecdysoneless cell cycle regulator) | 1 | -0.53 | 105 | 72.7 | inactive |
| ECD (ecdysoneless cell cycle regulator) | 2 | -0.153 | 52.2 | 47 | inactive |
| ECD (ecdysoneless cell cycle regulator) | 3 | 0.506 | 50.4 | 71.6 | inactive |
| ECD (ecdysoneless cell cycle regulator) | 4 | -0.0739 | 91.7 | 87.1 | inactive |
| PPFIA3 (PPFI scaffold protein A3) | 1 | -0.00115 | 56.6 | 56.6 | inactive |
| PPFIA3 (PPFI scaffold protein A3) | 2 | 0.312 | 51.8 | 64.3 | inactive |
| PPFIA3 (PPFI scaffold protein A3) | 3 | -0.246 | 93 | 78.4 | inactive |
| PPFIA3 (PPFI scaffold protein A3) | 4 | -0.408 | 117 | 88 | inactive |
| TRIM65 (tripartite motif containing 65) | 1 | -0.262 | 16.3 | 13.6 | inactive |
| TRIM65 (tripartite motif containing 65) | 2 | -0.203 | 66.9 | 58.1 | inactive |
| TRIM65 (tripartite motif containing 65) | 3 | -0.115 | 96.2 | 88.8 | inactive |
| CHRNA10 (cholinergic receptor nicotinic alpha 10 subunit) | 1 | -0.221 | 84.1 | 72.2 | inactive |
| CHRNA10 (cholinergic receptor nicotinic alpha 10 subunit) | 2 | -0.45 | 41.8 | 30.6 | inactive |
| CHRNA10 (cholinergic receptor nicotinic alpha 10 subunit) | 3 | -0.295 | 111 | 90.9 | inactive |
| CHRNA10 (cholinergic receptor nicotinic alpha 10 subunit) | 4 | -0.377 | 59.3 | 45.7 | inactive |
| AKAP7 (A-kinase anchoring protein 7) | 1 | -0.0866 | 62.9 | 59.3 | inactive |
| AKAP7 (A-kinase anchoring protein 7) | 2 | -0.0904 | 87.2 | 81.9 | inactive |
| AKAP7 (A-kinase anchoring protein 7) | 3 | 1.02 | 14.2 | 28.8 | inactive |
| AKAP7 (A-kinase anchoring protein 7) | 4 | -0.0828 | 95.4 | 90.1 | inactive |
| STRADB (STE20 related adaptor beta) | 1 | -0.0946 | 95.5 | 89.4 | inactive |
| STRADB (STE20 related adaptor beta) | 2 | -0.323 | 68.2 | 54.6 | inactive |
| STRADB (STE20 related adaptor beta) | 3 | -0.055 | 41.2 | 39.7 | inactive |
| STRADB (STE20 related adaptor beta) | 4 | -0.239 | 98.5 | 83.5 | inactive |
| PROP1 (PROP paired-like homeobox 1) | 1 | -0.435 | 76.5 | 56.6 | inactive |
| PROP1 (PROP paired-like homeobox 1) | 2 | -0.156 | 109 | 97.8 | inactive |
| PROP1 (PROP paired-like homeobox 1) | 3 | -0.263 | 62 | 51.7 | inactive |
| PROP1 (PROP paired-like homeobox 1) | 4 | -0.35 | 79.9 | 62.7 | inactive |
| PDE6A (phosphodiesterase 6A) | 1 | -0.298 | 67.8 | 55.2 | inactive |
| PDE6A (phosphodiesterase 6A) | 2 | -0.091 | 99.5 | 93.4 | inactive |
| PDE6A (phosphodiesterase 6A) | 3 | -0.311 | 120 | 97 | inactive |
| PDE6A (phosphodiesterase 6A) | 4 | -0.199 | 46.5 | 40.5 | inactive |
| G6PC2 (glucose-6-phosphatase catalytic subunit 2) | 1 | -0.211 | 35.4 | 30.6 | inactive |
| G6PC2 (glucose-6-phosphatase catalytic subunit 2) | 2 | 0.84 | 7.51 | 13.4 | inactive |
| G6PC2 (glucose-6-phosphatase catalytic subunit 2) | 3 | -0.394 | 78.7 | 59.9 | inactive |
| G6PC2 (glucose-6-phosphatase catalytic subunit 2) | 4 | 0.285 | 64.1 | 78.1 | inactive |
